The test system of the assay is L1210 leukemia ip in BDF1 mice, survival T/C. Kind of assay: NCI In Vivo Anticancer Drug Screen. Data for tumor model L1210 Leukemia (intraperitoneal) in B6D2F1 (BDF1) mice. The conditions noted are these: T/C endpoint: mean survival time, higher T/C = longer survival.
The mark [1] stands for this setting: dose: 100.0 mg/kg/injection, schedule: Q01DX001 (ip), vehicle: carboxymethylcellulose (CMC).
[2] abbreviates: dose: 400.0 mg/kg/injection, schedule: Q04DX002 (ip), vehicle: saline.

Structures are written as SMILES. The list does not hold the whole screen: it gathers tests that were run many times, whatever their T/C, doses with no T/C, and many T/C values between a quarter and a half above the control. Further doses and runs are listed elsewhere. T/C: endpoint of the treated group in % of that of the vehicle group. Some entries give survivors of the animals treated and no T/C: the source files T/C as zero there, which appears to mark a toxic dose or a test without result, not a measured value. Some doses without a T/C left all or most animals alive at the check, yet need not have been tolerated: the source hardly ever lists a survival T/C far under the control, and the zero likely stands for such cases as well. Survivors were counted at the toxicity check, usually on the fifth day, unless a day is given; later deaths do not show. Schedules are NCI's codes, taken here to give the interval after Q, in days (D) or hours (H), and the number of doses after X. Some schedules carry Z or #; the key to these is not given. For survival time, the PubChem record calls one and a half times the control and up active, and a quarter to a half above the control has no call in these data; cut-offs in other NCI protocols can differ. Some entries were tested several times; the values are given in rising order.

`CSc1ncc(Br)c(Sc2nc(N)nc3nc[nH]c23)n1`: the T/C is, setting by setting: (dose: 1.5 mg/kg/injection, schedule: Q01DX Z (ip), vehicle: carboxymethylcellulose (CMC)) 125 % of control; (dose: 4.0 mg/kg/injection, schedule: Q01DX Z (ip), vehicle: other) 126 and 132 % of control; (dose: 5.2 mg/kg/injection, schedule: Q01DX001 (ip), vehicle: saline) 139 % of control; (dose: 6.0 mg/kg/injection, schedule: Q01DX Z (ip), vehicle: carboxymethylcellulose (CMC)) 140 and 147 % of control; (dose: 7.9 mg/kg/injection, schedule: Q01DX001 (ip), vehicle: saline) 139 % of control; (dose: 8.0 mg/kg/injection, schedule: Q01DX Z (ip), vehicle: other) 148 % of control. The T/C by setting is: (dose: 12.0 mg/kg/injection, schedule: Q01DX Z (ip), vehicle: carboxymethylcellulose (CMC)) 144 % of control; (dose: 12.0 mg/kg/injection, schedule: Q01DX Z (ip), vehicle: methylcellulose (MC)) 144 % of control; (dose: 15.0 mg/kg/injection, schedule: Q01DX Z (ip), vehicle: carboxymethylcellulose (CMC)) 142 % of control; (dose: 16.0 mg/kg/injection, schedule: Q01DX Z (ip), vehicle: other) 134 and 148 % of control; (dose: 20.0 mg/kg/injection, schedule: Q01DX001 (ip), vehicle: saline with Tween-80) 136 % of control; (dose: 22.0 mg/kg/injection, schedule: Q01DX001 (ip), vehicle: carboxymethylcellulose (CMC)) 133 % of control. The T/C reads like this: (dose: 22.5 mg/kg/injection, schedule: Q01DX Z (ip), vehicle: carboxymethylcellulose (CMC)) 128 % of control; (dose: 24.0 mg/kg/injection, schedule: Q01DX Z (ip), vehicle: carboxymethylcellulose (CMC)) 131 % of control; (dose: 32.0 mg/kg/injection, schedule: Q01DX Z (ip), vehicle: other) 138 % of control; (dose: 33.0 mg/kg/injection, schedule: Q01DX001 (ip), vehicle: carboxymethylcellulose (CMC)) 133 % of control; (dose: 50.0 mg/kg/injection, schedule: Q01DX001 (ip), vehicle: carboxymethylcellulose (CMC)) 135 % of control; (dose: 66.0 mg/kg/injection, schedule: Q01DX001 (ip), vehicle: saline with Tween-80) 147 % of control. The T/C reads like this: (dose: 75.0 mg/kg/injection, schedule: Q01DX001 (ip), vehicle: carboxymethylcellulose (CMC)) 138 % of control; under setting [1], 142 % of control; (dose: 100.0 mg/kg/injection, schedule: Q01DX001 (ip), vehicle: saline) 131 and 139 % of control. Further, the survivor count runs as follows: (dose: 64.0 mg/kg/injection, schedule: Q01DX Z (ip), vehicle: other) 6 of 6; (dose: 79.0 mg/kg/injection, schedule: Q01DX Z (ip), vehicle: carboxymethylcellulose (CMC)) 6 of 6; (dose: 118.5 mg/kg/injection, schedule: Q01DX Z (ip), vehicle: carboxymethylcellulose (CMC)) 6 of 6; (dose: 128.0 mg/kg/injection, schedule: Q01DX Z (ip), vehicle: other) 6 of 6; (dose: 178.0 mg/kg/injection, schedule: Q01DX Z (ip), vehicle: carboxymethylcellulose (CMC)) 6 of 6; (dose: 200.0 mg/kg/injection, schedule: Q01DX Z (ip), vehicle: methylcellulose (MC)) 6 of 6. Besides, the survivor count runs as follows: (dose: 225.0 mg/kg/injection, schedule: Q01DX001 (ip), vehicle: saline) 6 of 6; (dose: 340.0 mg/kg/injection, schedule: Q01DX001 (ip), vehicle: saline) 6 of 6.
On to `C[n+]1cccc(C(=O)N/N=C/C=C/c2ccccc2)c1`, for which the survivor count (dose: 200.0 mg/kg/injection, schedule: Q01DX009 (ip), vehicle: saline with Tween-80) is 1 of 3.
In the case of `O=P(NC12CC3CC(CC(C3)C1)C2)(N1CC1)N1CC1`, the T/C is 125 % of control (dose: 6.0 mg/kg/injection, schedule: Q04DX003 (ip), vehicle: Klucel (hydroxypropylcellulose) (HPC)); 138 % of control (dose: 9.0 mg/kg/injection, schedule: Q04DX003 (ip), vehicle: Klucel (hydroxypropylcellulose) (HPC)); 128 % of control (dose: 12.0 mg/kg/injection, schedule: Q01DX001 (ip), vehicle: Klucel (hydroxypropylcellulose) (HPC)); 148 % of control (dose: 18.0 mg/kg/injection, schedule: Q01DX001 (ip), vehicle: Klucel (hydroxypropylcellulose) (HPC)); 146 % of control (dose: 40.0 mg/kg/injection, schedule: Q01DX001 (ip), vehicle: Klucel (hydroxypropylcellulose) (HPC)). For the same molecule, the survivor count is, setting by setting: (dose: 40.0 mg/kg/injection, schedule: Q04DX003 (ip), vehicle: Klucel (hydroxypropylcellulose) (HPC)) 6 of 6; (dose: 80.0 mg/kg/injection, schedule: Q04DX003 (ip), vehicle: Klucel (hydroxypropylcellulose) (HPC)) 5 of 6; (dose: 100.0 mg/kg/injection, schedule: Q04DX003 (ip), vehicle: Klucel (hydroxypropylcellulose) (HPC)) 6 of 6; (dose: 200.0 mg/kg/injection, schedule: Q04DX003 (ip), vehicle: Klucel (hydroxypropylcellulose) (HPC)) 4 of 6; (dose: 400.0 mg/kg/injection, schedule: Q04DX003 (ip), vehicle: Klucel (hydroxypropylcellulose) (HPC)) 5 of 6.
In the case of `N=C(N)c1ccc(-n2nc3ccc(C(=N)N)cc3n2)cc1`, the survivor count is given as 0 of 4 (dose: 100.0 mg/kg/injection, schedule: Q04DX003 (ip), vehicle: saline); 0 of 4 (dose: 200.0 mg/kg/injection, schedule: Q04DX003 (ip), vehicle: saline); 0 of 4 (dose: 400.0 mg/kg/injection, schedule: Q04DX003 (ip), vehicle: saline).
As to `NC(CCl)=NCc1cccnc1`, the survivor count runs as follows: (dose: 50.0 mg/kg/injection, schedule: Q04DX002 (ip), vehicle: saline) 1 of 3; (dose: 100.0 mg/kg/injection, schedule: Q04DX002 (ip), vehicle: saline) 0 of 3; (dose: 200.0 mg/kg/injection, schedule: Q04DX002 (ip), vehicle: saline) 0 of 3; under setting [2], 0 of 3.
Consider `O=[N+]([O-])c1ccc(-[n+]2ccccc2)c([N+](=O)[O-])c1`, for which the survivor count was 2 of 6 (dose: 225.0 mg/kg/injection, schedule: Q01DX009 (ip), vehicle: saline) and 0 of 6 (dose: 335.0 mg/kg/injection, schedule: Q01DX009 (ip), vehicle: saline).
Consider `CC[C@@]1(O)C(=O)OCc2c1cc1n(c2=O)Cc2cc3cc(OC)ccc3nc2-1`, for which the T/C by setting is: (dose: 1.25 mg/kg/injection, schedule: Q01DX001 (ip), vehicle: saline) 137 % of control; (dose: 191.0 micrograms/kg/injection, schedule: Q01DX009 (ip), vehicle: saline) 125 and 141 % of control; (dose: 287.0 micrograms/kg/injection, schedule: Q01DX009 (ip), vehicle: saline) 131 % of control; (dose: 430.0 micrograms/kg/injection, schedule: Q01DX009 (ip), vehicle: saline) 138 % of control; (dose: 646.0 micrograms/kg/injection, schedule: Q01DX009 (ip), vehicle: saline) 131 % of control. For the same molecule, the survivor count (dose: 3.3 mg/kg/injection, schedule: Q01DX009 (ip), vehicle: saline) is listed as 6 of 6; the survivor count (dose: 30.0 mg/kg/injection, schedule: Q01DX001 (ip), vehicle: saline) is recorded as 2 of 4; the survivor count (dose: 45.0 mg/kg/injection, schedule: Q01DX001 (ip), vehicle: saline) is on record as 1 of 4; the survivor count (dose: 65.0 mg/kg/injection, schedule: Q01DX001 (ip), vehicle: saline) is 2 of 4.
For the molecule `O=C(CCN1CCC2CCC(C2)C1)c1ccccc1C(F)(F)F` (stereo not drawn), the survivor count was 2 of 4 under setting [1]; 0 of 4 (dose: 200.0 mg/kg/injection, schedule: Q01DX001 (ip), vehicle: carboxymethylcellulose (CMC)); 0 of 4 (dose: 400.0 mg/kg/injection, schedule: Q01DX001 (ip), vehicle: carboxymethylcellulose (CMC)).
In the case of `COCP(=O)(O)O`, the survivor count under setting [2] is given as 1 of 3.
Regarding `COc1ncnc2c1nnn2C1OC(CO)C(O)C1O` (stereo not drawn), the T/C (dose: 50.0 mg/kg/injection, schedule: Q01DX001 (ip), vehicle: saline with Tween-80) was 129 % of control.

These data come from PubChem BioAssay AID248 (DTP/NCI, 2004).
